Literature values in patent US20230193011A1, “COLOR CHANGING POLYMERIC RESIN COMPOSITIONS” (ECOLAB USA INC., priority 2021, published 2023).
For at least one compound, name, drawing or mass did not settle the structure.

Question: What does the source list for `O=S1(=O)OC(c2ccc(O)cc2)(c2ccc(O)cc2)c2ccccc21` [Phenol red]?
Answer: High pH color (color above the transition range): red; Low pH color (color below the transition range): yellow; pH start (pH at which the color change begins): 6.4; pH end (pH at which the color change ends): 8.0
